{"source": "patent US20090123940A1", "about": "“MOLECULES INVOLVED IN SYNAPTOGENESIS AND USES THEREFOR” (THE JOHNS HOPKINS UNIVERSITY, priority 2007, published 2009)", "binders": {"B1": {"name": "Neuronal activity regulated pentraxin (Narp) (ligand)", "chain": "QAQDNPIPGSRFVCTALPPEAARAGCPLPAMPMQGGALSPEEELRAAVLHWRETVVQQKETLGAQREAIRELTSKLARCEGLAGGKARGTGATGKDTMGDLPRDPGHVVEQLSRSLQTLKDRLESLELQLHTNASNAGLPSDFREVLQRRLGELERQLLRKVAELEDEKSLLHNETSAHRQKTENTLNALLQRVTELERGNSAFKSPDAFKVSLPLRTNYLYGKIKKTLPELYAFTICLWLRSSASPGIGTPFSYAVPGQANEIVLIEWGNNPIELLINDKVAQLPLFVSDGKWHHICITWTTRDGMWEAFQDGEKLGTGENLAPWHPIKPGGVLILGQEQDTVGGRFDATQAFVGELSQFNIWDRVLRAQEIINIANCSTNMPGNIIPWVDNNVDVFGGASKWPVETCEERLLDL"}}, "biological_target": "N-cadherin", "assay": "co-IP from HEK293 cells; co-clustering on the surface of COS-7 cells", "note": "No constants are given. Whether binding was seen depends on the method and setting. In cells and extracts the contact can be indirect. A result given as binding can be weak or reduced; the word gives no strength.", "data": [{"binder": "B1", "values": [{"measurement": "binding", "result": "binds"}]}]}
